Laboratory results as given in patent US20200172905.
Where cells or extracts were used, other partners may take part.

Protein sequences, listed by entry. Tags and fused reporters are not part of them.
UniProt Q62351, whole entry: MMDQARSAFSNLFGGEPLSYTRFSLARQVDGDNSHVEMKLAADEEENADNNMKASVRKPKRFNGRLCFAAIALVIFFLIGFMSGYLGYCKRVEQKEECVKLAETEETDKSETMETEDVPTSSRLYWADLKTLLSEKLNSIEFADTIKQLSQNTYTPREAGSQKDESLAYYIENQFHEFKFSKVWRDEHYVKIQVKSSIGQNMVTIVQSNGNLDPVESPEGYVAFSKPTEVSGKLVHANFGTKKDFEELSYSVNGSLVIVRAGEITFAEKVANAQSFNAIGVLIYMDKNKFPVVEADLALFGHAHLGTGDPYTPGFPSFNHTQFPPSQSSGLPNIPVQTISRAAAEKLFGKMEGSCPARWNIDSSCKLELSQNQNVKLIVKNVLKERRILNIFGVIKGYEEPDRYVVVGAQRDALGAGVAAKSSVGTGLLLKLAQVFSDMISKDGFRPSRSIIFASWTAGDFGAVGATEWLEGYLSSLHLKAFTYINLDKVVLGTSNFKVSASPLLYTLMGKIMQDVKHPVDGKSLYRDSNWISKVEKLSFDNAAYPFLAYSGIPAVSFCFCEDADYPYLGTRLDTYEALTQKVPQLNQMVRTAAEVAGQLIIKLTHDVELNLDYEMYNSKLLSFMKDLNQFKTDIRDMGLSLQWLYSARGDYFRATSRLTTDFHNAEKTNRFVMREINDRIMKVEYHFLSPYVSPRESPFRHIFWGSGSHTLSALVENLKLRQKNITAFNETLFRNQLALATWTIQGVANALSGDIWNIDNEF

Assays:
[1] = target: Transferrin receptor (TfR) on HepG2 / PANC-1 cells (Homo sapiens) (UniProt P02786); assay: binding assay; settings: 2'-F (library of 2'F RNAs; positions not stated), protein on the cell surface, label: biotin (SPR)
[2] = target: Transferrin receptor (TfR) on LTPA cells (Mus musculus) (UniProt Q62351); assay: binding assay; settings: 2'-F (library of 2'F RNAs; positions not stated); 200 nM Cy3 aptamer, 2 h, live-cell confocal; internalised into mouse LTPA, cross-reactive between species; protein on the cell surface; label: biotin (SPR), Cy3 (cell imaging); variant of TR14 (87-mer)

GGGAGACAAGAAUAAACGCUCAAUGCGUUCACGUUUAUUCACAUUUUUGAAUUGAGCAUGAGCUUCGACAGGAGGCUCACAACAGGC [TR14 (87-mer)]
binding result ([1]; internalised into HepG2 cells, CITED WO 2006/061386): binds

GGGGCUCAAUGCGUUCACGUUUAUUCACAUUUUUGAAUUGAGC [TR14 S2 (43-mer)]
binding result ([1]; internalised into HepG2 cells, CITED WO 2006/061386, variant of TR14 (87-mer)): binds

UUUAUUCACAUUUUUGAAUUGA [TR14 S1-3 (22-mer)]
binding result ([1]; 200 nM Cy3 aptamer, 2 h, live-cell confocal, internalised into HepG2 and PANC-1, 5 mM MgCl2, Cy3 (cell imaging), variant of TR14 (87-mer)): binds
binding result [2]: binds
